From paper PMC8384837
Changes are numbered by the printed parent chain. The list shows a part of the results. For some of these results: At the low end of the ranking, values are background and their order means little. For some of these results: The exact form of the protein is not confirmed.

Legend:
Conditions in all cases: yeast three-hybrid, YBZ-1, SC-Leu-His + 0.5 mM 3-AT, 4 days
[1] = target: T1, PUM1 PUF domain R2-VFQ R3-THE R4-TFR N899V + Y900F + C935T + R936H + Q939E + N971T + H972F + Q975R (UniProt Q14671)
T1 sequence: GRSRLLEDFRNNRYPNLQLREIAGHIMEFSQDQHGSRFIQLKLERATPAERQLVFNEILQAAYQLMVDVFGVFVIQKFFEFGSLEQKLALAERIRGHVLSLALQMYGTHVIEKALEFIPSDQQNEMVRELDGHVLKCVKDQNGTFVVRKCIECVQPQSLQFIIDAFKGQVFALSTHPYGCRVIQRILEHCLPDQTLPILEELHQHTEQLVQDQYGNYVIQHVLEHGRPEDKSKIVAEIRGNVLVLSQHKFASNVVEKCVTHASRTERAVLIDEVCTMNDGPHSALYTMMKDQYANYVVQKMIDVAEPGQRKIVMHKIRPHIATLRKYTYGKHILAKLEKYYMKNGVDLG

[2] = target: T2, PUM1 PUF domain R1-QFR R2-VFQ R7-NPG S863Q + R864F + Q867R + N899V + Y900F + S1079N + N1080P + E1083G (UniProt Q14671)
T2 sequence: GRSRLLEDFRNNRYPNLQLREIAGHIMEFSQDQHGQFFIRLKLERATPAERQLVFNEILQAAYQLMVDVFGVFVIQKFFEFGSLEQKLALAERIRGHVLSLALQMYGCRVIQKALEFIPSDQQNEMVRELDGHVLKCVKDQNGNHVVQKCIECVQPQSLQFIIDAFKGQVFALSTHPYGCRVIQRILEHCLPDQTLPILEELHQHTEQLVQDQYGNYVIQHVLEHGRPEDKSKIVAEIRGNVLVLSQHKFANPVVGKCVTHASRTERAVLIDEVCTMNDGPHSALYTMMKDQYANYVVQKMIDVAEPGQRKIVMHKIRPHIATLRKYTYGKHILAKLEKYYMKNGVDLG

[3] = target: T3, PUM1 PUF domain R6-SWD R7-NPG N1043S + Y1044W + Q1047D + S1079N + N1080P + E1083G (UniProt Q14671)
T3 sequence: T2 sequence with Q36S, F37R, R40Q, V72N, F73Y, N216S, Y217W, Q220D

[4] = target: T4, PUM1 PUF domain R6-SWD R7-NPG N1043S + Y1044W + Q1047D + S1079N + N1080P + E1083G (Homo sapiens) (UniProt Q14671)
T4 sequence: T2 sequence with Q36S, F37R, R40Q, V72N, F73Y, N216S, Y217W, Q220D

[5] = target: T5, PUM1 PUF domain R5-PHQ R6-SWD C1007P + R1008H + N1043S + Y1044W + Q1047D (UniProt Q14671)
T5 sequence: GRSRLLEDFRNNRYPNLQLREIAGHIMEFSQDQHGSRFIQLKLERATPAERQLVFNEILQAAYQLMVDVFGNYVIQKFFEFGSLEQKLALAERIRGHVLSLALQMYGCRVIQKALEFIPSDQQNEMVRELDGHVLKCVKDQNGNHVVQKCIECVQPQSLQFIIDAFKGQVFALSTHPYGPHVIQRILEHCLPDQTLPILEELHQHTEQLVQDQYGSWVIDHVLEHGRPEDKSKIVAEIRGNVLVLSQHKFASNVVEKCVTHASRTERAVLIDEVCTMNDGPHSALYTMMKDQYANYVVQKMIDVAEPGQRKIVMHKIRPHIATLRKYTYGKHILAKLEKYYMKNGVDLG

[6] = target: T6, PUM1 PUF domain R3-THE R4-TFR C935T + R936H + Q939E + N971T + H972F + Q975R (UniProt Q14671)
T6 sequence: T1 sequence with V72N, F73Y

GGCUAGAACUAGUGGAUCCCCCGGCGCCCGGCGGCUCGAGCCCGGGUAAGUUAACCUCGUCUGCAUGCCGCCGGGCGCCAUGCCUGCAGGUCGACUCUAGAAAACAUG
binding signal (log2 enrichment (interaction score)) [1]: -5.54

GGCUAGAACUAGUGGAUCCCCCGGCGCCCGGCGGCUCGAGCCCGGGUAAGGGUACGAUGUCUGCAUGCCGCCGGGCGCCAUGCCUGCAGGUCGACUCUAGAAAACAUG
binding signal (log2 enrichment (interaction score)) [1]: -3.79

GGCUAGAACUAGUGGAUCCCCCGGCGCCCGGCGGCUCGAGCCCGGGUAAGAAGCAUAGGUCUGCAUGCCGCCGGGCGCCAUGCCUGCAGGUCGACUCUAGAAAACAUG
binding signal (log2 enrichment (interaction score)) [1]: -5.33

GGCUAGAACUAGUGGAUCCCCCGGCGCCCGGCGGCUCGAGCCCGGGUAAGUUGCCGCAGUCUGCAUGCCGCCGGGCGCCAUGCCUGCAGGUCGACUCUAGAAAACAUG
binding signal (log2 enrichment (interaction score)) [2]: -5.19 | binding signal (log2 enrichment (interaction score)) [3]: -2.3

GGCUAGAACUAGUGGAUCCCCCGGCGCCCGGCGGCUCGAGCCCGGGUAAGUCAAAAACGUCUGCAUGCCGCCGGGCGCCAUGCCUGCAGGUCGACUCUAGAAAACAUG
binding signal (log2 enrichment (interaction score)) [2]: -5.63 | binding signal (log2 enrichment (interaction score)) [4]: -1.97

GGCUAGAACUAGUGGAUCCCCCGGCGCCCGGCGGCUCGAGCCCGGGUAAGGUGAGGCAGUCUGCAUGCCGCCGGGCGCCAUGCCUGCAGGUCGACUCUAGAAAACAUG
binding signal (log2 enrichment (interaction score)) [2]: -5.88 | binding signal (log2 enrichment (interaction score)) [4]: -1.1

GGCUAGAACUAGUGGAUCCCCCGGCGCCCGGCGGCUCGAGCCCGGGUAAGAGUAAAACGUCUGCAUGCCGCCGGGCGCCAUGCCUGCAGGUCGACUCUAGAAAACAUG
binding signal (log2 enrichment (interaction score)) [2]: -4.9 | binding signal (log2 enrichment (interaction score)) [5]: -7.52 | binding signal (log2 enrichment (interaction score)) [4]: -1.12

GGCUAGAACUAGUGGAUCCCCCGGCGCCCGGCGGCUCGAGCCCGGGUAAGUUGAAGGCGUCUGCAUGCCGCCGGGCGCCAUGCCUGCAGGUCGACUCUAGAAAACAUG
binding signal (log2 enrichment (interaction score)) [1]: -5.31

GGCUAGAACUAGUGGAUCCCCCGGCGCCCGGCGGCUCGAGCCCGGGUAAGGUUUCCUCGUCUGCAUGCCGCCGGGCGCCAUGCCUGCAGGUCGACUCUAGAAAACAUG
binding signal (log2 enrichment (interaction score)) [1]: -5.79

GGCUAGAACUAGUGGAUCCCCCGGCGCCCGGCGGCUCGAGCCCGGGUAAGGGCUGGUAGUCUGCAUGCCGCCGGGCGCCAUGCCUGCAGGUCGACUCUAGAAAACAUG
binding signal (log2 enrichment (interaction score)) [1]: -4.79

GGCUAGAACUAGUGGAUCCCCCGGCGCCCGGCGGCUCGAGCCCGGGUAAGUUUACAUCGUCUGCAUGCCGCCGGGCGCCAUGCCUGCAGGUCGACUCUAGAAAACAUG
binding signal (log2 enrichment (interaction score)) [2]: -6.84 | binding signal (log2 enrichment (interaction score)) [5]: -6.7 | binding signal (log2 enrichment (interaction score)) [3]: -2.32

GGCUAGAACUAGUGGAUCCCCCGGCGCCCGGCGGCUCGAGCCCGGGUAAGUUGACCAGGUCUGCAUGCCGCCGGGCGCCAUGCCUGCAGGUCGACUCUAGAAAACAUG
binding signal (log2 enrichment (interaction score)) [2]: -4.65 | binding signal (log2 enrichment (interaction score)) [3]: -2

GGCUAGAACUAGUGGAUCCCCCGGCGCCCGGCGGCUCGAGCCCGGGUAAGCUUGAGUAGUCUGCAUGCCGCCGGGCGCCAUGCCUGCAGGUCGACUCUAGAAAACAUG
binding signal (log2 enrichment (interaction score)) [1]: < -5.91

GGCUAGAACUAGUGGAUCCCCCGGCGCCCGGCGGCUCGAGCCCGGGUAAGUUGAUGAAGUCUGCAUGCCGCCGGGCGCCAUGCCUGCAGGUCGACUCUAGAAAACAUG
binding signal (log2 enrichment (interaction score)) [2]: -6.46 | binding signal (log2 enrichment (interaction score)) [5]: -7.55 | binding signal (log2 enrichment (interaction score)) [3]: -2.01

GGCUAGAACUAGUGGAUCCCCCGGCGCCCGGCGGCUCGAGCCCGGGUAAGUAUAUGAGGUCUGCAUGCCGCCGGGCGCCAUGCCUGCAGGUCGACUCUAGAAAACAUG
binding signal (log2 enrichment (interaction score)) [1]: -6.01

GGCUAGAACUAGUGGAUCCCCCGGCGCCCGGCGGCUCGAGCCCGGGUAAGUAGGCGAAGUCUGCAUGCCGCCGGGCGCCAUGCCUGCAGGUCGACUCUAGAAAACAUG
binding signal (log2 enrichment (interaction score)) [1]: -5.5 | binding signal (log2 enrichment (interaction score)) [6]: -6.44

GGCUAGAACUAGUGGAUCCCCCGGCGCCCGGCGGCUCGAGCCCGGGUAAGUGAACGACGUCUGCAUGCCGCCGGGCGCCAUGCCUGCAGGUCGACUCUAGAAAACAUG
binding signal (log2 enrichment (interaction score)) [1]: -5.02

GGCUAGAACUAGUGGAUCCCCCGGCGCCCGGCGGCUCGAGCCCGGGUAAGUGCACGCAGUCUGCAUGCCGCCGGGCGCCAUGCCUGCAGGUCGACUCUAGAAAACAUG
binding signal (log2 enrichment (interaction score)) [1]: -5.46

GGCUAGAACUAGUGGAUCCCCCGGCGCCCGGCGGCUCGAGCCCGGGUAAGGUGAUACAGUCUGCAUGCCGCCGGGCGCCAUGCCUGCAGGUCGACUCUAGAAAACAUG
binding signal (log2 enrichment (interaction score)) [1]: -4.64

GGCUAGAACUAGUGGAUCCCCCGGCGCCCGGCGGCUCGAGCCCGGGUAAGCCUAUGGGGUCUGCAUGCCGCCGGGCGCCAUGCCUGCAGGUCGACUCUAGAAAACAUG
binding signal (log2 enrichment (interaction score)) [1]: < -6.45

GGCUAGAACUAGUGGAUCCCCCGGCGCCCGGCGGCUCGAGCCCGGGUAAGUUGAGUACGUCUGCAUGCCGCCGGGCGCCAUGCCUGCAGGUCGACUCUAGAAAACAUG
binding signal (log2 enrichment (interaction score)) [1]: -6.23

GGCUAGAACUAGUGGAUCCCCCGGCGCCCGGCGGCUCGAGCCCGGGUAAGAUUAAUACGUCUGCAUGCCGCCGGGCGCCAUGCCUGCAGGUCGACUCUAGAAAACAUG
binding signal (log2 enrichment (interaction score)) [1]: -5.76

GGCUAGAACUAGUGGAUCCCCCGGCGCCCGGCGGCUCGAGCCCGGGUAAGGUUCCGAAGUCUGCAUGCCGCCGGGCGCCAUGCCUGCAGGUCGACUCUAGAAAACAUG
binding signal (log2 enrichment (interaction score)) [1]: -4.72
